Earlier results as cited in patent publication US20080255097A1, “Methods for the Treatment of Substance Abuse and Dependence” (priority 2005, published 2008).

Row | SMILES | duration of block of injected heroine effects (single oral dose) | duration of action (in vivo)
1 | O=C1CC[C@@]2(O)[C@H]3Cc4ccc(O)c5c4[C@@]2(CCN3CC2CC2)[C@H]1O5 [Naltrexone, 17-(cyclopropylmethyl)-4,5α-epoxy-3,14-dihydroxymorphinan-6-one] | 48 h | 
2 | CC[C@H](OC(C)=O)C(C[C@H](C)N(C)C)(c1ccccc1)c1ccccc1 [levo-alphacetylmethadol] |  | 48 to 72 h
